Source: patent publication US20040072753A1, “Peptides for use in the treatment of alzheimer's disease” (priority 2000, published 2004)
These are yes or no findings as the source states them, for the method shown. Some entries that bind do so weakly or less than the wild type.

Protein sequences, listed by entry. Tags and fused reporters are not part of them. Lines headed by an entry give the natural chain unless they say otherwise; changes in a name come on top.
UniProt Q99714: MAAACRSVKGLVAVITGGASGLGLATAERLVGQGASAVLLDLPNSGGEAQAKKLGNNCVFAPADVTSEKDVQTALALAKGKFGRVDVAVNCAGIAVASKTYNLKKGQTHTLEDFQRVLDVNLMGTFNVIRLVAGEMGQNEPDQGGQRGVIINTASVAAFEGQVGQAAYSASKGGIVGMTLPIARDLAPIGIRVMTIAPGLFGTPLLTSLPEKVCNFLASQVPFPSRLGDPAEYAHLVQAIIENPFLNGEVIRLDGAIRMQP

Molecular target: T1, EAβBP peptide (ERAB residues 99-108) (human) (UniProt Q99714)
T1 sequence (peptide, looked up): KTYNLKKGQT
Assay: ELISA, EAβBP-coated plate, biotinylated peptide 200 pM

Question: VHHQKLVFFAEDVGSNK (biotinylated (LinKit-Biolink kit, site not stated)) [Aβ 12-28] was tested. Which binding did it give?
Answer: Its binding is “binds”.
